We go through 19 molecules from PMC10163288.

The list shows a part of the results.

One may read the apparent Kd as a dissociation constant that holds for the conditions of the assay.

B1: il2ra_site2_3nfp_sap_17_mot_HHH_b1_06238_000000047_0001_1_16_H_._HHH_b2_02195_0001_0000300040_0000001_0_0001 (protein)
chain: SEEEKEEIERLEKELREAVERNDKELIKEIIREIAHFVARHKDDPDAFELFALANEARLAVLEAS
B2: il2ra_site1_3nfp_normal_mot_HHH_b1_05523_000000027_0001_1_19_H_._HHH_b1_02072_af2_0001_0000100004_0000001_0_af2pred_0001_af2pred_1 (protein)
chain: SSSSSREEIKELLRKALELFENGNPEEAKRLLEEAKELAEELGDEVTVKFIEVLLKIVEGSSSSS
B3: il2ra_site1_3nfp_sap_20_mot_HHH_b2_02552_af2_000000235_0001_1_20_H_._HHH_b2_06600_0001_0000200021_0000001_0_0001 (protein)
chain: SAEQFERDIKRMGDPEALEALEQAVELLERLGVPPAEAAWIFIRLAVKLGDPEEALEVVEERVRK
B4: il2ra_site2_3nfp_normal_mot_HHH_b2_08110_af2_000000162_0001_23_39_H_._HHH_b1_00283_af2_0001_0000200024_0000001_1 (protein)
chain: SSSSDEEARKLAEEAEELAKQGDDEEVRKLLRRAVQIAWELRNHELFAFVADVATKLYELKSSSS
B5: il2ra_site1_1z92_normal_mot_1314d61ee722589b4fd511cf1ceb5c8f_0001_000000256_0001_17_32_H_._595119ead38f9ce12e857540ce41a9a5_0001_1_af2_0001_0000200007_0000001_0 … (protein)
chain: SEEEELRELAEEGDLQAIDELIIELEEKLNVPPEEAARILLEELERLGNPKAAKAVKHAIRAARA
B6: il2ra_site1_1z92_sap_10_mot_HHH_b1_07196_000000117_0001_22_39_H_._HHH_b1_00276_af2_0001_0000200005_0000001_0_0001_af2pred_0001_af2pred_1 (protein)
chain: SLEEALEFLEELAKELNDPALKFLVEQLERKVRLGNEEAARKQVEKALRFSGDPRLEEVLKLLRK
B7: il2ra_site2_2erj_normal_mot_76e6e8f7232a9e65eeaab5ff8ecb4c96_0001_000000242_0001_17_31_H_._HHH_b2_02630_af2_0001_0001000017_0000001_0_af2pred_0001_af2pred (protein)
chain: SSSSSDEEREEAEKLLEEAQEIEDPEEAKEVALEALEVAVRVDDEELEKRILELFERLRSSSSSS
B8: il2ra_site1_2b5i_normal_mot_f5ff40796168375b462bec8614a1db4a_0001_1_000000138_0001_53_65_H_._HHH_b1_06054_af2_0001_0000100001_0000001_0_af2pred_dldesign_0_af2pr … (protein)
chain: SSSSSEDLRENTERLLELARELYEKGELEEARKLLILAKKLAEKAKDPELIAEIDEALKLVSSSS
B9: il2ra_site1_2b5i_normal_mot_HHH_b1_02217_af2_000000060_0001_42_56_H_._HHH_b1_03152_0001_0000100008_0000001_0_af2pred_dldesign_0_af2pred (protein)
chain: SSSSDPEARLEELAAELFKLSISGKKEEFEKVYEEALRLAKELKDEKTIEQLEFLKERLESSSSS
B10: il2ra_site2_2erj_normal_mot_HHH_b2_08311_000000151_0001_42_56_H_._HHH_b1_01841_0001_0000200008_0000001_0 (protein)
chain: SSSSDEEFRELAIRAHELALEYERENDERLREELRELLEEVEELGDEVLFRYVELLLRELSSSSS
B11: il2ra_site1_1z92_normal_mot_7f39e2d7389de0c2f60e905c27398b6a_0001_1_000000104_0001_37_51_H_._b993f726e2a1b23aaa9ca63207d855c5_0001_0001_0000200010_0000001_0_af2 … (protein)
chain: GEEEVEIAEKMAGGDPEKFVRLVLRLLKAAGELSPEELKELEEKLEELLKRDPEKAKELAERALE
B12: il2ra_site1_3nfp_sap_10_mot_HHH_b1_03753_af2_000000088_0001_41_54_H_._HHH_b2_08022_af2_0001_0000500028_0000001_0_0001 (protein)
chain: SSSSSEVERLSRLFHEAYRAAKNGDHEEARELLEEALEIAEEAGNRAAKRSLEAAEKQVNSSSSS
B13: il2ra_site2_3nfp_sap_30_mot_ems_3hM_287_af2_000000177_0001_46_64_H_._389fc1b6a7361b8bfcefbbec9e626cb8_0001_af2_0001_0000500034_0000001_0_0001 (protein)
chain: DLLLELAAEAWERGDEDLFALVSAALHAKQQGVPPEEIEEELKRIVELAGIPPEVLELVEEAVRT
B14: il2ra_site2_2erj_normal_mot_HHH_b1_02566_000000063_0001_42_58_H_._HHH_b1_02927_af2_0001_0000700007_0000001_0 (protein)
chain: SSSSNEAWEEVAELLLQAYEAARNNDEELLKELLEQAREIAEEANSEALKRYVEFARRLQESSSS
B15: il2ra_site1_3nfp_sap_21_mot_547aa2ef8f6f7cecb07f26a8b8f5883c_0001_1_000000275_0001_1_15_H_._HHH_b1_04668_0001_0000700018_0000001_0_0001 (protein)
chain: SIAEAFARLVANAPNPRLDARHVIKALREAAPDPERVKEIVREIIELLEELGNPEAAEILEELLK
B16: il2ra_site1_3nfp_normal_mot_HHH_b1_00233_000000159_0001_1_17_H_._HHH_b1_02182_0001_0000900016_0000001_0_af2pred_0001_af2pred_1 (protein)
chain: SSSSSEVARIVIELAEEFNLDHEASEKLIRLAAKLLLRGVSEEEIEELLEELAKRLAEELSSSSS
B17: il2ra_site1_1z92_sap_30_mot_HHH_b1_06519_000000232_0001_23_40_H_._HHH_b1_01092_0001_0000500023_0000001_0_0001_af2pred_0001_af2pred_1 (protein)
chain: SSSSSSEQSARHIVKAAVEAARLSEEQEKELEELAEELVRRGYSFEEIFRILDELALKLASSSSS
B18: il2ra_site1_3nfp_normal_mot_HHH_b1_07644_af2_000000110_0001_40_57_H_._56b2e862c5d7020fcb9d25388f5aedda_0001_af2_0001_0000100004_0000001_0 (protein)
chain: DIAERLLRQAKELGDLKAVSDVAAAAAFHRNDPELEERIEKLKEEAKENPEVEEELIELAERLLK
B19: il2ra_site2_3nfp_normal_mot_HHH_b2_06150_000000217_0001_39_53_H_._HHH_b1_07298_af2_0001_0000600027_0000001_0 (protein)
chain: SSSSDEEEKVRRLLEQLEELLEEGDEEKFRELVAEVAHLIFEANNSELFFLLAEILFEAEQSSSS

The assay addresses il2ra, P01589. Kind of assay: yeast display titration.
For B1, the “apparent Kd” value was “inactive: no binding seen”.
For B2 the value was “inactive: no binding seen”; for B3, “inactive: no binding seen”; for B4, inactive: > 0.684 µM.
For B5, the “apparent Kd” value was “inactive: no binding seen”.
Next, B6: “inactive: no binding seen”; B7: “inactive: no binding seen”.
Next, B8: “inactive: no binding seen”.
Regarding B9, the “apparent Kd” value was “inactive: no binding seen”.
For B10 the value was “inactive: no binding seen”; for B11, “inactive: no binding seen”; for B12, “inactive: no binding seen”.
Consider B13, for which the “apparent Kd” value was “inactive: no binding seen”.
B14: the “apparent Kd” value was “inactive: no binding seen”.
For B15 the value was “inactive: no binding seen”.
Regarding B16, the “apparent Kd” value was “inactive: no binding seen”.
For B17 the value was “inactive: no binding seen”; for B18, “inactive: no binding seen”; for B19, “inactive: no binding seen”.
